This is an account of results in article PMC4694890.

Chains of the proteins cited; added tags and fusions are not shown.
UniProt Q04206: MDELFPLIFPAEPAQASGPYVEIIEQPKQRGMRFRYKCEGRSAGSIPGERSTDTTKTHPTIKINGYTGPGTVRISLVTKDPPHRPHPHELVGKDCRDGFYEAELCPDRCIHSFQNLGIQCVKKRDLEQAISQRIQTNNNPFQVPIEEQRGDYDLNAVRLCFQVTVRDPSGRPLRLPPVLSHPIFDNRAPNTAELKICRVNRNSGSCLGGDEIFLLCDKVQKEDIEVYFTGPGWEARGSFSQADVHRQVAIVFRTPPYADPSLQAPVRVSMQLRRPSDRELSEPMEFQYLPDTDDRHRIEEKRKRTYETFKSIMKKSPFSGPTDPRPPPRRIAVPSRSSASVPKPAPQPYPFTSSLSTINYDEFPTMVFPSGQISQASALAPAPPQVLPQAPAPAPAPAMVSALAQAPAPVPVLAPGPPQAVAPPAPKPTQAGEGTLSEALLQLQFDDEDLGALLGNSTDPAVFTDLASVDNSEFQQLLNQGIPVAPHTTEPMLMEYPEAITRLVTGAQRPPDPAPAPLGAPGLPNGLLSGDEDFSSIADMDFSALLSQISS
UniProt Q16665: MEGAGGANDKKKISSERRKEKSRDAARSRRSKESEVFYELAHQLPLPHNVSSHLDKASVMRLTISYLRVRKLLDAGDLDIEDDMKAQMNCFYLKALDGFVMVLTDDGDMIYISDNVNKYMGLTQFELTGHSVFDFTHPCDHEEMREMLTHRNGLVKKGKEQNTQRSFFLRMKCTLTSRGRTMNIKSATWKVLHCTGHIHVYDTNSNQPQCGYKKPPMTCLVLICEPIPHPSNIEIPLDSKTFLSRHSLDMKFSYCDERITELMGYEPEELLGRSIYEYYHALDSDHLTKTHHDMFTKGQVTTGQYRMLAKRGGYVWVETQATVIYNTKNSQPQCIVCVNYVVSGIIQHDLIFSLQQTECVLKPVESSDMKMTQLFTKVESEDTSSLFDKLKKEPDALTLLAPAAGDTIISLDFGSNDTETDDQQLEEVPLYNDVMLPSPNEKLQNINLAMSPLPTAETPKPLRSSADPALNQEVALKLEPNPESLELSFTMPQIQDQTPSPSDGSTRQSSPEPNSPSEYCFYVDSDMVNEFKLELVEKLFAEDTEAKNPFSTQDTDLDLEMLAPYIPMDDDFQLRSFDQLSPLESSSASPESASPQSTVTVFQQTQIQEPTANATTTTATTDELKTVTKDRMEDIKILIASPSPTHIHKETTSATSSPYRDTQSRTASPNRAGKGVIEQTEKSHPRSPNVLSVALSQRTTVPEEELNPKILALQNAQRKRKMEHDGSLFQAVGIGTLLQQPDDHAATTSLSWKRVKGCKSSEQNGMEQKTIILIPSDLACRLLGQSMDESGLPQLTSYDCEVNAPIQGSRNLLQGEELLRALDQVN

No constants are given. Whether binding was seen depends on the method and setting. Binding seen in cells or lysates may run through a third protein. Some entries that bind do so weakly or less than the wild type.

For experiment [1], the target named is T1, peroxisome proliferator-activated receptor α (human (endogenous in U87 and U251)) (UniProt Q07869).
T1 sequence: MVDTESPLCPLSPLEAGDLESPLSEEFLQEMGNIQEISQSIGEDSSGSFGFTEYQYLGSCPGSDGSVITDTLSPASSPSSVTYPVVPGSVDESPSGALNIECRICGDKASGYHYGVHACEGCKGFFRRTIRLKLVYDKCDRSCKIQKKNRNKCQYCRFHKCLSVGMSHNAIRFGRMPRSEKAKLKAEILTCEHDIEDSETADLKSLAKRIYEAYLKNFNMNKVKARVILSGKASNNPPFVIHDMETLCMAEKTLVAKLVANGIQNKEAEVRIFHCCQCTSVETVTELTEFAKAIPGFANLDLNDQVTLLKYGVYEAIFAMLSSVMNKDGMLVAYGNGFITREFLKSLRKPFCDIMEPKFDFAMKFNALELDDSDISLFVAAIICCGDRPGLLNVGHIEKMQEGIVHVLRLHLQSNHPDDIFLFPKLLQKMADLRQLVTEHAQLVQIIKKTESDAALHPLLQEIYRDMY
The experiment can be described thus: co-IP; cytoplasmic protein fraction of glioblastoma cells, untreated or treated with FF (100 μM); anti-PPARα or anti-RelA overnight at 4°C, protein A/G plus-agarose, Western blot. For orientation: A western blot detects proteins with antibodies after separation by electrophoresis.

Experiment [2] deals with T1, peroxisome proliferator-activated receptor α (human (endogenous in U87 and U251)). The experiment can be described thus: co-IP; nuclear protein fraction of glioblastoma cells; anti-PPARα or anti-RelA overnight at 4°C, protein A/G plus-agarose, Western blot.
Experiment [3] deals with NF-κB/RelA (human (endogenous in U87 and U251)) (UniProt Q04206). The description is as above.

NF-κB/RelA (from UniProt Q04206 1-551): the figures for the binding entry in experiment [1] and in experiment [2] were “binds” and “no binding (condition: in the nuclear fraction)”, respectively.

With “hypoxia inducible factor1 alpha (from UniProt Q16665 1-826)”, the binding entry in experiment [3] is “binds”.
